From patent publication US20220251209A1 come the findings set out here.

Results are given in words; binding and its absence hold for the method and conditions named. Some entries that bind do so weakly or less than the wild type.

The target in experiment [1] is T1, canine CTLA-4 (canine) (UniProt Q9XSI1).
T1 sequence: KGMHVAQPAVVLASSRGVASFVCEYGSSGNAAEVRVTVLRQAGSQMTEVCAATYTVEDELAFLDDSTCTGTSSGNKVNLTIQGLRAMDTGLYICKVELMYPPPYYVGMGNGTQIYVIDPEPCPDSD
The experiment is described as follows: ELISA, canine CTLA-4 coated, anti-dog IgG Fc-HRP. On the technique in general: ELISA stands for enzyme-linked immunosorbent assay.

Experiment [2] concerns the target T1, canine CTLA-4 (canine). The experiment is described as follows: ELISA, canine CTLA-4 (FIG. 2).
In experiment [3] the target is T1, canine CTLA-4 (canine). Put plainly: ELISA, canine CTLA-4 coated (FIG. 1).
Experiment [4] concerns the target T1, canine CTLA-4 (canine). Put plainly: ELISA, canine CTLA-4.

B1: chimeric mouse-canine anti-human CTLA-4 antibody 3B3 (antibody, V domains shown)
VH: EVKLVNSGGGLVQPGNSLRLSCATSGFTFTDFYMSWVRQPPGKALEWLGFVRNRANGYTTEYSVSVKGRFIISRDNFQSTLFLQMNTLRAEDSGTYYCVRGPGDTADYTMDYWGQGTSVTVSS
VL: QAVVTQESAFTTSPGGTVILTCRSSTGAVTTNNYANWVQEKPDHLFTGLIGGTSNRAPGVPVRFSGSLIGDKAALTITGAQTEDDGMYFCALWYTTHFVFGGGTKVTVLG
On to B1, for which the binding result in experiment [1] is “binds”.

B2: chimeric mouse-canine anti-human CTLA-4 antibody 3B10 (antibody, V domains shown)
VH: EVQLQQFGAELVKPGASVKMSCKASGYTFTDYNMDWVRQSGKSLEWIGNINPNSESTSYNQKFKGKATLTVDKSSSTAYMELRSLTSDDTAVYYCTRDGNRYDAWFAYWGQGTLVTVSS
VL: QIVLTQSPAIMSASPGEKVTMTCSASSSVTYMHWFQQKPGTSPKLWIYSTSILASGVPARFSGSGSGTSYSLTISRMEAEDAATYYCQQRTSYPLTFGTGTKLELKR
Regarding B2, the binding result in experiment [2], in experiment [3] and in experiment [1] was “binds” each time.

B3: chimeric mouse-canine anti-human CTLA-4 antibody 8H5 (antibody, V domains shown)
VH: QVQLQQSGDDLVKPGASVKLSCKASGYTFTSYWINWIKQRPGQGLEWIGRIAPGSGTTYYNEVFKGKATLTVDKYSSTAYIQLSSLSSEDSAVYFCARGDYGSYWGQGTLVTVSS
VL: QIVLTQSPAIMSASPGEKVTMTCSASSSISYMHWFQQKPGTSPKRWIYDTSKLASGVPARFSGSGSGTSYSLTINSMEAEDAATYYCHQRTSYPLTFGAGTKLELKR
B3: the binding result in experiment [1] was “binds”.

B4: caninized 3B10 antibody c3B10L2-H3 (antibody, V domains shown)
VH: EVQLVQSGAEVKKPGASVKVSCKASGYTFTDYNMDWVRQAHGASLDWIGNINPNSESTSYNQKFKGKATLTVDKSTSTAYMELSSLRAGDIAVYYCTRDGNRYDAWFAYWGQGTLVTVSS
VL: QIVMTQTPLSLSVSPGEPASISCSASSSVTYMHWFQQKPGQSPQSLIYSTSILASGVPDRFSGSGSGTDFTLKISRVEADDAGVYYCQQRTSYPLTFGTGTKLELKR
On to B4, for which the binding entry in experiment [4] is reported as “binds”.

B5: caninized 3B10 antibody c3B10L3-H2 (antibody, V domains shown)
VH: EVQLVQSGAEVKKPGASVKVSCKASGYTFTDYNMDWVRQAPGASLDWIGNINPNSESTSYNQKFKGKATLTVDKSTSTAYMELSSLRAGDIAVYYCTRDGNRYDAWFAYWGQGTLVTVSS
VL: QIVLTQTPLSLSVSPGEPASISCSASSSVTYMHWFQQKPGQSPKSWIYSTSILASGVPDRFSGSGSGTDFTLKISRVEADDAGVYYCQQRTSYPLTFGTGTKLELKR
B5: the binding result in experiment [4] and in experiment [2] was “binds” throughout.

B6: caninized 3B10 antibody c3B10L3-H3 (antibody, V domains shown)
VH: EVQLVQSGAEVKKPGASVKVSCKASGYTFTDYNMDWVRQAHGASLDWIGNINPNSESTSYNQKFKGKATLTVDKSTSTAYMELSSLRAGDIAVYYCTRDGNRYDAWFAYWGQGTLVTVSS
VL: QIVLTQTPLSLSVSPGEPASISCSASSSVTYMHWFQQKPGQSPKSWIYSTSILASGVPDRFSGSGSGTDFTLKISRVEADDAGVYYCQQRTSYPLTFGTGTKLELKR
Take B6: the binding result in experiment [4] and in experiment [2] was “binds” in each case.

B7: caninized 3B10 antibody c3B10L1-H1 (antibody, V domains shown)
VH: EVQLVQSGAEVKKPGASVKVSCKASGYTFTDYNMDWVRQAPGAGLDWMGNINPNSESTSYNQKFKGRVTLTADTSTSTAYMELSSLRAGDIAVYYCTRDGNRYDAWFAYWGQGTLVTVSS
VL: DIVMTQTPLSLSVSPGEPASISCSASSSVTYMHWFRHKPGQSPQSLIYSTSILASGVPDRFSGSGSGTDFTLKISRVEADDAGVYYCQQRTSYPLTFGTGTKLELKR
Regarding B7, in experiment [4], the binding result was “binds”.

B8: caninized 3B10 antibody c3B10L3-H4 (antibody, V domains shown)
VH: EVQLQQSGAEVKKPGASVKVSCKASGYTFTDYNMDWVRQAPGASLDWIGNINPNSESTSYNQKFKGKATLTVDKSTSTAYMELRSLTAGDIAVYYCTRDGNRYDAWFAYWGQGTLVTVSS
VL: QIVLTQTPLSLSVSPGEPASISCSASSSVTYMHWFQQKPGQSPKSWIYSTSILASGVPDRFSGSGSGTDFTLKISRVEADDAGVYYCQQRTSYPLTFGTGTKLELKR
Take B8: the binding result in experiment [4] and in experiment [2] was “binds” in each case.

B9: caninized 3B10 antibody c3B10L2-H2 (antibody, V domains shown)
VH: EVQLVQSGAEVKKPGASVKVSCKASGYTFTDYNMDWVRQAPGASLDWIGNINPNSESTSYNQKFKGKATLTVDKSTSTAYMELSSLRAGDIAVYYCTRDGNRYDAWFAYWGQGTLVTVSS
VL: QIVMTQTPLSLSVSPGEPASISCSASSSVTYMHWFQQKPGQSPQSLIYSTSILASGVPDRFSGSGSGTDFTLKISRVEADDAGVYYCQQRTSYPLTFGTGTKLELKR
Consider B9, for which, in experiment [4], the binding result is on record as “binds”.

B10: chimeric human-canine anti-human CTLA-4 antibody 411 (antibody, V domains shown)
VH: QVQLVESGGGVVQPGRSLRLSCVASGFTFSSHGMHWVRQAPGKGLEWVAVIWYDGRNKYYADSVKGRFTISRDNSKNTLFLQMNSLRAEDTAVYYCARGGHFGPFDYWGQGTLVTVSS
VL: EIVLTQSPGTLSLSPGERATLSCRASQSISSSFLAWYQQRPGQAPRLLIYGASSRATGIPDRFSGSGSGTDFTLTISRLEPEDFAVYYCQQYGTSPWTFGQGTKVEIKR
As for B10, the binding entry in experiment [1] is reported as “binds”.

B11: chimeric human-canine anti-human CTLA-4 antibody 418 (antibody, V domains shown)
VH: QVQLVESGGGVVQPGRSLRLSCTASGFTFSNYGMHWVRQAPGKGLEWVAVIWYDGSNKHYGDSVKGRFTISSDNSKNTLYLQMNSLRAEDTAVYYCARGERLGSYFDYWGQGTLVTVSS
VL: EIVLTQSPGTLSLSPGERATLSCRTSVSSSYLAWYQQKPGQAPRLLIYGASSRATGIPDRFSGSGSGTDFTLTISRLEPEDFAVYYCQQYGISPFTFGGGTKVEIKR
B11: the binding result in experiment [1] was “binds”.

B12: chimeric human-canine anti-human CTLA-4 antibody 611 (antibody, V domains shown)
VH: QVQLVESGGGVVEPGRSLRLSCTASGFTFSSYGMHWVRQAPGKGLEWVAVIWYDGSNKHYADSAKGRFTISRDNSKNTLYLQMNSLRAEDTAVYYCARAGLLGYFDYWGQGTLVTVSS
VL: EIVLTQSPGTLSLSPGERATLSCRASQSVSSYLAWYQQKPGQAPRPLIYGVSSRATGIPDRFSGSGSGTDFTLTISRLEPEDFAVYYCQQYGISPFTFGPGTKVDIKR
For B12, the binding result in experiment [1] is recorded as “binds”.
